Taken from: PubChem BioAssay AID743454 (Peter MacCallum Cancer Centre, 2014)
Purpose: 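Search for knock-downs that restore vorinostat killing in resistant colon cancer cells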 (primary screen). System: human HCT116-VR colon cancer cells, selected for vorinostat resistance. Knock-down reagent: siRNA pool against human genes, 40 nM siRNA pool. Time to read-out: vorinostat for 24 h, read-out about 72 h after transfection. Conditions: vorinostat at 2.5 µM final. Measurement: 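Two measures, CellTiter-Fluor viability and luminescent caspase 3/7 activity, each as fold change against same-plate mock wells, mean of duplicates, then screen-wide robust z-score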. Direction: viability robust z-score: higher = more viable cells than screen typical; caspase robust z-score: higher = more caspase 3/7 activity than screen typical. Call rule: 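a knock-down is a hit when classed RV1 or RV2 for lowered viability, or CA1 or CA2 for caspase activation; those lethal without drug were dropped; hits were retested singly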.
The whole screen tested about 18,000 reagents; below is a random part of them. Over the whole deposit, 450 (2.5%) are marked active. 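Single biological run; no consistent viability z cut-off exists, so the class columns, not z-scores, define the calls.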

target gene	PubChem SID	viability hit class	caspase hit class	viability robust z-score	caspase robust z-score	outcome
LY96	SID134324021	no change	no change	0.76	-0.82	inactive
RANBP2	SID152149066	no change	no change	-0.77	1.5	inactive
FAM151A	SID134321673	no change	no change	0.26	0.52	inactive
ZNF221	SID135621221	no change	no change	0.12	-0.53	inactive
OR5D13	SID152147863	no change	no change	-0.77	1.54	inactive
HDGFL1	SID135622994	no change	no change	1.1	0.07	inactive
EZH1	SID135620793	no change	no change	1.1	0.14	inactive
RPP25	SID152155784	no change	no change	-0.57	0.5	inactive
STH	SID135625250	no change	no change	-0.42	0.72	inactive
SIMC1	SID152152287	no change	no change	1.07	-0.52	inactive
C6orf15	SID152150639	no change	no change	-1.35	1.43	inactive
PRSS57	SID152154682	no change	no change	0.76	-0.06	inactive
RAPH1	SID152151338	no change	no change	-0.6	-0.52	inactive
VMA21	SID152149784	no change	no change	0.49	-0.05	inactive
MAP2	SID135621343	no change	no change	-1.34	1.89	inactive
CAMLG	SID152154051	no change	no change	-0.33	0.07	inactive
MAP3K7	SID135620737	no change	no change	-0.6	3.5	inactive
SLC25A13	SID135621378	no change	no change	0.49	-0.03	inactive
NDFIP1	SID134317644	no change	no change	0.1	0.58	inactive
THAP1	SID135624170	no change	CA1 (caspase activation)	-0.18	5.46	active
TCEAL1	SID135623851	no change	no change	-2	2.35	inactive
GPR31	SID152155730	no change	no change	-1.17	2.49	inactive
SLC16A11	SID152150160	no change	no change	-0.27	-0.52	inactive
FBXL8	SID134321437	no change	no change	0.81	0.1	inactive
ATXN7	SID135622056	no change	no change	-0.16	0.3	inactive
LIFR	SID152151089	no change	no change	0.29	-0.77	inactive
TBC1D20	SID152148535	no change	CA2 (caspase activation)	-1.15	5.98	active
FEM1A	SID152150643	no change	no change	-0.65	1.21	inactive
ANO8	SID135624977	no change	no change	-1.07	-0.7	inactive
YWHAH	SID152149364	no change	no change	0.72	0.66	inactive
SLC35D2	SID152155542	no change	no change	-1.55	3.89	inactive
LPGAT1	SID152148428	no change	no change	0.84	0.48	inactive
RPS7	SID152151845	RV2 (reduced viability)	no change	-4.75	-1.68	active
GNG11	SID152152392	no change	no change	1.15	0.08	inactive
LAMP2	SID134316036	no change	no change	-0.71	-0.88	inactive
NEDD8	SID152151265	no change	no change	-0.08	2.93	inactive
HCG27	SID135623643	no change	no change	-0.35	2.21	inactive
GPBP1	SID134318408	no change	no change	0.34	-0.28	inactive
MRPL11	SID134317358	no change	no change	-2.88	1.77	inactive
KCNK2	SID152152205	no change	no change	-0.34	-0.99	inactive
ZSCAN22	SID134312296	no change	no change	-0.14	0.37	inactive
PANX2	SID135622894	no change	no change	-0.63	1.39	inactive
TBC1D31	SID152155546	no change	no change	0.78	-0.56	inactive
TRIM64C	SID152148296	no change	no change	-1.94	-0.12	inactive
TRIM64C	SID152151029	no change	no change	0.29	-0.3	inactive
HR	SID152149964	no change	no change	1.09	-0.5	inactive
DUOXA2	SID135625098	no change	no change	-0.74	-0.15	inactive
SNTB1	SID135622458	no change	no change	-0.48	-0.84	inactive
TRHDE	SID134310251	no change	no change	0	-0.66	inactive
NFIA	SID134313520	no change	no change	0.07	1.22	inactive
HOXB2	SID152147382	no change	no change	0.36	-0.87	inactive
MAML3	SID152154042	no change	no change	-1.77	-0.06	inactive
DAD1	SID134310450	no change	no change	-0.42	1.26	inactive
IER5L	SID135625038	no change	no change	2.62	1	inactive
EIF3L	SID135624088	no change	CA1 (caspase activation)	0.15	5.35	active
LPAR3	SID134310659	no change	no change	-2.21	1.23	inactive
PHF20L1	SID152156002	no change	no change	0.36	-0.56	inactive

A few values from the list.
For “outcome”, MRPL11 [SID134317358] shows inactive
Result of GPBP1 [SID134318408] under “viability hit class”: no change
SLC35D2 [SID152155542], caspase hit class: no change
Value for TBC1D31 [SID152155546] in “viability robust z-score”: 0.78
Value of DUOXA2 [SID135625098] in “viability robust z-score”: -0.74
Result for LPGAT1 [SID152148428] under “caspase robust z-score”: 0.48
